Results are given in words; binding and its absence hold for the method and conditions named. Some results given as binding are weak or reduced against the parent protein; the word gives no strength.
What was measured:
[1] = target: Focal Adhesion Kinase (FAK), SPR ligand (UniProt Q05397); assay: SPR, Cx26 peptides 1 nM to 100 µM against buffer control
[2] = target: Nanog transcription factor (NANOG), SPR ligand (UniProt Q9H9S0); assay: as above
[3] = target: Nanog transcription factor (NANOG), SPR ligand (UniProt Q9H9S0); assay: SPR, Cx26 C-terminal peptide as analyte (1 nM to 100 µM by the legend) over NANOG, against buffer control
[4] = target: Focal Adhesion Kinase (FAK), SPR ligand (UniProt Q05397); assay: SPR, Cx26 C-terminal peptide as analyte (1 nM to 100 µM by the legend) over FAK, against buffer control

Amino acid sequences for entries named in this document (tags omitted).
UniProt Q05397: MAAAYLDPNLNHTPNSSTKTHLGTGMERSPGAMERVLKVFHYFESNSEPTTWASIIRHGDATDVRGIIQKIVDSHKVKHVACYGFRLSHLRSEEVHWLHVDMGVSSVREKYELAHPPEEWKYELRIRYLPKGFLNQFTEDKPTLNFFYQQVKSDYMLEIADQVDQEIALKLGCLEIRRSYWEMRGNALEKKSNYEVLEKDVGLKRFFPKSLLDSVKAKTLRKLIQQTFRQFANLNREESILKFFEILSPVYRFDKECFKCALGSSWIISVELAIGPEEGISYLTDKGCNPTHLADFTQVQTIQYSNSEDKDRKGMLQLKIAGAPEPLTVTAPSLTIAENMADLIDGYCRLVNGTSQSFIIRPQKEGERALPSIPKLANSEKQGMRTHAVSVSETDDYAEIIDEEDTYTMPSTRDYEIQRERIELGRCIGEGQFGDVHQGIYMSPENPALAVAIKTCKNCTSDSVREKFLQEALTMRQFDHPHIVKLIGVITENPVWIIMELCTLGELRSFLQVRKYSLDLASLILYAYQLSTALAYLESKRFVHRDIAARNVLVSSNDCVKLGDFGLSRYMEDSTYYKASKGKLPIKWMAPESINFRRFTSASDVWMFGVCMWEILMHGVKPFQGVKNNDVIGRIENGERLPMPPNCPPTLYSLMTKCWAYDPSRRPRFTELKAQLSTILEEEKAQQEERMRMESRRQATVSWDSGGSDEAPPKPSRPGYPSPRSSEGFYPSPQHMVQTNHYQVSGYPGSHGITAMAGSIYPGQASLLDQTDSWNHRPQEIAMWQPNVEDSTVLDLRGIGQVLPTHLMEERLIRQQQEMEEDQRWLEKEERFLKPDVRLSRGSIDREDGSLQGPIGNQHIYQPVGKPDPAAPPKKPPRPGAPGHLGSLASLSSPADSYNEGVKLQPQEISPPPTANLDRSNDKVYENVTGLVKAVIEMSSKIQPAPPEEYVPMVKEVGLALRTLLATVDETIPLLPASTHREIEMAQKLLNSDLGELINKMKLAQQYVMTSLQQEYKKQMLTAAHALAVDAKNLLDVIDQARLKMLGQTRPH
UniProt Q9H9S0: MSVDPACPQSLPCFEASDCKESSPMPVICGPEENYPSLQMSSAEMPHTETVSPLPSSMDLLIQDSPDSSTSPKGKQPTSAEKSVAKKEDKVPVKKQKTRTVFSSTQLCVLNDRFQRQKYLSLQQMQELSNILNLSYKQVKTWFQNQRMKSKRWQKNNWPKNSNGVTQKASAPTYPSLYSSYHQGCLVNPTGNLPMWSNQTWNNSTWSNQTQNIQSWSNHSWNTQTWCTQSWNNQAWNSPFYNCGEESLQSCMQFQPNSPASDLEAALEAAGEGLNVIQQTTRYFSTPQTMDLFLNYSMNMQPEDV

Measured: binding

RYCSGKSKKPV [Cx26 blocking peptide 5 (C-terminus)]
binds: all assays above
